Here are results for one molecule from patent publication US20040259798A1.

The chains behind the UniProt entries cited, without tags or fusion partners. Where a name states a change or a piece, a line headed by the entry shows the natural chain unless it says otherwise.
UniProt P20701: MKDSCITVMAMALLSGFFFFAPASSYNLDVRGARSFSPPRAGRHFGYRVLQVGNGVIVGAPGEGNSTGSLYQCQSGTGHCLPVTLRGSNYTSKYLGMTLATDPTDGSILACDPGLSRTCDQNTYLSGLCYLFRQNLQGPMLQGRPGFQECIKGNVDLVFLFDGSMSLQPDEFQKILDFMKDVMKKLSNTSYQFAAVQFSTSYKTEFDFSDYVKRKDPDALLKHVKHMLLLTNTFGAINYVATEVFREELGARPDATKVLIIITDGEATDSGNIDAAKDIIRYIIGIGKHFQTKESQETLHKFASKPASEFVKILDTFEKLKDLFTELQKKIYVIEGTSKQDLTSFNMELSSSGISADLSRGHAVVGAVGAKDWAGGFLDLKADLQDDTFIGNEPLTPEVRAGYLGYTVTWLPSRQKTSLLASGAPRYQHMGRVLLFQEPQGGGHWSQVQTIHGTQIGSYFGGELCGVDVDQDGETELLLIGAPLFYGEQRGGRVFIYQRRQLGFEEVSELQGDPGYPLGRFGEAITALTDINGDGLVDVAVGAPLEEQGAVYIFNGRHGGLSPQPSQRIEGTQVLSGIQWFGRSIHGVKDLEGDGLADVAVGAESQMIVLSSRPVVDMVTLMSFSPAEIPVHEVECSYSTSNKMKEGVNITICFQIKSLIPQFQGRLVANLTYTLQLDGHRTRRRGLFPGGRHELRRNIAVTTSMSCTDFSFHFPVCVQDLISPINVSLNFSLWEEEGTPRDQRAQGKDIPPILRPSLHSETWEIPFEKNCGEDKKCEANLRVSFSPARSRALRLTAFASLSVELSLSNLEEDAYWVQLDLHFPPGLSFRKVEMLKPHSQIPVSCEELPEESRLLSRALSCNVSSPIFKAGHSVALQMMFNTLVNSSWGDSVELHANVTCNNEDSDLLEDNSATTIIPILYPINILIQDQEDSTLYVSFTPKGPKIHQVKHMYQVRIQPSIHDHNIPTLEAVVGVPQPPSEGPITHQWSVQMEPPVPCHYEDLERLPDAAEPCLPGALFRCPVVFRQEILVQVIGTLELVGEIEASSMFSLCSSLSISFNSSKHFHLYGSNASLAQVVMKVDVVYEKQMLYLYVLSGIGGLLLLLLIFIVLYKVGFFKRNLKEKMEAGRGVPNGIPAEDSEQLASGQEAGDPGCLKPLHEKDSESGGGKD

In this assay the target is integrin captured with the TS2/4 antibody (UniProt P20701). Kind of assay: GST protein (10 µg/ml) on integrin immunocaptured with TS2/4, Eu-labelled anti-GST detection.

Results are given in words; binding and its absence hold for the method and conditions named. Some binding calls cover weakened binding; strength is not graded here. Sequences can lack the tags named with a protein.

Consider CPCFLLGCC (peptide, not shown: a dimerising Fc or GST) [LLG-C4-GST fusion protein], for which the binding result is reported as “binds”.
